Experimental data: PMC8527048
No constants are given. Whether binding was seen depends on the method and setting. Binding seen in cells or lysates may run through a third protein. A yes stands for co-enrichment or nearness to the bait. Other partners may have been found. Tags and fused reporters may be left off the sequences shown.

Target: T1, ORMDL3-MYC (UniProt Q9CPZ6)
T1 sequence: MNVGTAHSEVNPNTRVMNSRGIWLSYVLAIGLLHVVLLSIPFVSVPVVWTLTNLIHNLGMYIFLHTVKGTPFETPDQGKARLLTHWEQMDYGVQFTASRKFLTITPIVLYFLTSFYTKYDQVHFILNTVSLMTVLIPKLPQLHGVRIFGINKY
Assay: affinity purification with mass spectrometry; anti-MYC antibody on protein G beads precipitates ORMDL3-MYC from BMMCL activated 3 min with 1 uM thapsigargin; 1% Triton X-100 lysis, 2 h at 4°C; Coomassie-stained band cut out, MALDI peptide mass fingerprinting

B1: 5-lipoxygenase (5-LO), endogenous in mouse mast cells (enzyme, UniProt P48999 1-674)
chain: MPSYTVTVATGSQWFAGTDDYIYLSLIGSAGCSEKHLLDKAFYNDFERGAVDSYDVTVDEELGEIYLVKIEKRKYWLHDDWYLKYITLKTPHGDYIEFPCYRWITGEGEIVLRDGRAKLARDDQIHILKQHRRKELEARQKQYRWMEWNPGFPLSIDAKCHKDLPRDIQFDSEKGVDFVLNYSKAMENLFINRFMHMFQSSWHDFADFEKIFVKISNTISERVKNHWQEDLMFGYQFLNGCNPVLIKRCTALPPKLPVTTEMVECSLERQLSLEQEVQEGNIFIVDYELLDGIDANKTDPCTHQFLAAPICLLYKNLANKIVPIAIQLNQTPGESNPIFLPTDSKYDWLLAKIWVRSSDFHVHQTITHLLRTHLVSEVFGIAMYRQLPAVHPLFKLLVAHVRFTIAINTKAREQLICEYGLFDKANATGGGGHVQMVQRAVQDLTYSSLCFPEAIKARGMDSTEDIPFYFYRDDGLLVWEAIQSFTMEVVSIYYENDQVVEEDQELQDFVKDVYVYGMRGKKASGFPKSIKSREKLSEYLTVVIFTASAQHAAVNFGQYDWCSWIPNAPPTMRAPPPTAKGVVTIEQIVDTLPDRGRSCWHLGAVWALSQFQENELFLGMYPEEHFIEKPVKEAMIRFRKNLEAIVSVIAERNKNKKLPYYYLSPDRIPNSVAI
- binding: binds
